Measurements reported in the supplement of paper PMC12873370.
“And” between values parts separate entries of the source, which are not always exact repeats. Identical values can stand only once. The list shows a part of the results. Most values come without repeats; read them as rough.

What was measured:
[1] = system: MEPP (mouse ovarian epithelium Trp53/Pten KO); test: cell viability relative to untreated (fraction); higher = less growth inhibition; details: 5 µM; 3 days
[2] = system: PREPP (mouse prostate epithelium Trp53/Pten KO); test: as above; details: 5 µM; 3 days

Compound | cell viability [1] | cell viability [2]
Oc1cc(O)c2c(c1)O[C@H](c1ccc(O)c(O)c1)[C@H](O)C2 | 0.885 | 0.954
CC1=CC(=O)c2ccccc2C1=O | 1.03 | 0.947
NC(N)=NCC(=O)O | 0.935 | 1.02
NC1(C(=O)O)CC1 | 1.06 | 0.878
COc1ccc(-c2coc3cc(O)ccc3c2=O)cc1O | 1.7 | 0.917
CC(C)(CO)C(O)C(=O)NCCC(=O)O (stereo not given) | 0.85 | 0.808
COc1c(O)cc2oc3cc(O)c(CC=C(C)C)c(O)c3c(=O)c2c1CC=C(C)C | 1.07 | 0.859
CC[C@H](N)C(=O)O | 0.895 | 1.05
CN(C)[C@@H]1C(O)=C(C(N)=O)C(=O)[C@@]2(O)C(O)=C3C(=O)c4c(O)cccc4[C@@](C)(O)[C@H]3C[C@@H]12 | 1.09 and 0.802 | 0.974 and 1.03
Cc1cccc(C)c1NC(=O)C1CCCCN1C (stereo not given) | 0.958 | 0.921
COc1ccc(O)cc1 | 0.964 | 0.927
N[C@@H](CCC(=O)O)C(=O)O | 1.13 | 1.01
O=C1C=C2C=C[C@@H](O)[C@H](O)[C@H]2O1 | 1.07 | 0.996
CC(C)C(=O)C(=O)O | 0.868 | 1.06
O=C(O[C@@H]1O[C@@H]2COC(=O)c3cc(O)c(O)c(O)c3-c3c(cc(O)c(O)c3O)C(=O)O[C@H]([C@H]1O)[C@@H]2O)c1cc(O)c(O)c(O)c1 | 1.12 | 1.09
COc1c2occc2cc2ccc(=O)oc12 | 1.26 | 0.95
CC(=O)NC1C(O)OC(CO)C(O)C1O (stereo not given) | 0.892 | 1.08
CCOC(=O)CCC(=O)O[C@H]1[C@H](O[C@@H]2[C@@H](C)[C@H](O[C@H]3C[C@@](C)(OC)[C@@H](O)[C@H](C)O3)[C@@H](C)C(=O)O[C@H](CC)[C@@](C)(O)[C@H](O)[C@@H](C)C(=O)[C@H](C)C[C@@]2(C)O)O[C@H](C)C[C@@H]1N(C)C | 0.834 | 0.773
CCOC(=O)/C=C/c1ccc(O)c(OC)c1 | 1.15 | 1.13
Oc1cc(O)c2c(c1)O[C@H](c1ccc(O)c(O)c1)[C@@H](O)C2 | 0.926 | 0.978
CCCNC(C)C(=O)Nc1ccccc1C (stereo not given) | 1.11 | 0.88
OC[C@@H](O)[C@H](O)[C@@H](O)CO | 1.09 | 0.957
COc1cc2c(cc1OC)[C@@H]1Cc3ccc(OC)c(OC)c3CN1CC2 | 0.927 | 1.09
CC(=O)OC/C=C(C)/C=C/C=C(C)/C=C/C1=C(C)CCCC1(C)C | 1.23 | 0.849
O=[N+]([O-])c1ccc(O)c2ncccc12 | 0.722 | 0.631
CO[C@@]1(NC(=O)Cc2cccs2)C(=O)N2C(C(=O)O)=C(COC(N)=O)CS[C@@H]21 | 1.07 | 0.937
O=c1cc(-c2ccccc2)oc2ccccc12 | 1.18 | 0.974

Compound | cell viability [1] | cell viability [2]
Nc1ncnc2c1ncn2[C@@H]1O[C@H](CO)C[C@H]1O | 0.885 | 1.22
C=C1CC[C@H](O)C/C1=C/C=C1\CCC[C@]2(C)[C@@H]([C@H](C)CCCC(C)C)CC[C@@H]12 | 1.07 | 0.948
C[C@H](C[C@H](O)[C@@H](O)C(C)(C)O)C1=C2C[C@H](O)[C@H]3[C@@]4(C)CCC(=O)C(C)(C)[C@@H]4CC[C@]3(C)[C@@]2(C)CC1 | 1.16 | 1
O=C([O-])c1ccccc1O.[Na+] | 0.9 | 0.934
O=C(O)CC(O)(CC(=O)O)C(=O)O | 1.15 | 1.11
O=C(O)c1ccc2c(c1)C(=O)c1ccccc1C2=O | 0.961 | 1.14
COC(=O)[C@H]1[C@H]2C[C@@H]3c4[nH]c5cc(OC)ccc5c4CCN3C[C@H]2C[C@@H](OC(=O)c2cc(OC)c(OC)c(OC)c2)[C@@H]1OC | 0.778 and 1.1 | 1.19 and 0.696
C=C(C)[C@@H]1CC[C@]2(C(=O)O)CC[C@]3(C)[C@H](CC[C@@H]4[C@@]5(C)CCC(=O)C(C)(C)[C@@H]5CC[C@]43C)[C@@H]12 | 1.16 | 0.909
CC(Cc1ccc(O)c(O)c1)C(C)Cc1ccc(O)c(O)c1 (stereo not given) | 1.13 | 0.8
C[C@H]1O[C@H](O[C@@H]2[C@@H](O)[C@H](OCCc3ccc(O)c(O)c3)O[C@H](CO[C@H]3O[C@@H](CO)[C@H](O)[C@@H](O)[C@@H]3O)[C@H]2OC(=O)/C=C/c2ccc(O)c(O)c2)[C@@H](O)[C@@H](O)[C@@H]1O | 1.03 | 0.967
CN(N=O)C(=O)N[C@@H](C=O)[C@@H](O)[C@H](O)[C@H](O)CO | 1.03 | 0.888
CN1CC(=O)NC1=O | 0.803 | 1.02
Cc1ncc(C[n+]2csc(CCO)c2C)c(N)n1 | 1.05 and 1.27 and 1.06 | 0.984 and 1.08 and 0.94
COc1cc(-c2oc3cc(O)cc(O)c3c(=O)c2O)ccc1O | 2.23 | 0.883
O=C(O)Cc1ccc(O)c(O)c1 | 0.893 | 0.907
CC1(C)CCC2=C(O1)c1ccccc1C(=O)C2=O | 0.275 | 0.433
[Cl][Mn][Cl] | 1.04 | 0.913
CC(C)[C@@H]1CC[C@@H](C)C[C@H]1O | 1.88 | 0.921
CC/C=C\CCO | 0.814 | 0.964
Cc1c2oc3c(C)ccc(C(=O)N[C@@H]4C(=O)N[C@H](C(C)C)C(=O)N5CCC[C@H]5C(=O)N(C)CC(=O)N(C)[C@@H](C(C)C)C(=O)O[C@@H]4C)c3nc-2c(C(=O)N[C@@H]2C(=O)N[C@H](C(C)C)C(=O)N3CCC[C@H]3C(=O)N(C)CC(=O)N(C)[C@@H](C(C)C)C(=O)O[C@@H]2C)c(N)c1=O | 0.547 | 0.33
Cc1onc(-c2ccccc2Cl)c1C(=O)N[C@@H]1C(=O)N2[C@@H]1SC(C)(C)[C@@H]2C(=O)O | 1.08 | 0.897
NC(=O)NC1NC(=O)NC1=O (stereo not given) | 0.886 | 1.02
O=C1CCCC(=O)C1C(=O)c1ccc(C(F)(F)F)cc1[N+](=O)[O-] | 0.772 | 0.875
O=C(Nc1ncc([N+](=O)[O-])s1)c1ccccc1O | 0.768 | 0.987
CN1CCc2cc3c(cc2C(=O)Cc2cc4c(cc2C1)OCO4)OCO3 | 0.809 | 0.836
C[C@]12CC[C@@H]3c4ccc(O)cc4CC[C@H]3[C@@H]1CC[C@@H]2O | 1.09 and 0.669 | 0.843 and 0.892
C[C@@H]1C/C=C/C=C/C=C/C=C/[C@H](O[C@@H]2O[C@H](C)[C@@H](O)[C@H](N)[C@@H]2O)C[C@@H]2O[C@](O)(C[C@@H](O)C[C@H]3O[C@@H]3/C=C/C(=O)O1)C[C@H](O)[C@H]2C(=O)O | 1.03 | 0.933

Compound | cell viability [1] | cell viability [2]
O=c1ccn([C@@H]2O[C@H](COP(=O)(O)OP(=O)(O)OP(=O)(O)O)[C@@H](O)[C@H]2O)c(=O)[nH]1 | 1.25 | 1.07
O=C(O)c1cccnc1C(=O)O | 0.859 | 0.931
C[C@@H]1C(=O)O[C@H]2C[C@@]34[C@H]5C[C@@H](C(C)(C)C)[C@]36[C@@H](OC(=O)[C@@H]6O)O[C@@]4(C(=O)O5)[C@]21O | 1.22 | 1.07
CC(C)Oc1ccc2c(=O)c(-c3ccccc3)coc2c1 | 0.781 | 0.888
C[C@H](CCC(=O)O)[C@H]1CC[C@H]2[C@@H]3CC[C@@H]4C[C@H](O)CC[C@]4(C)[C@H]3CC[C@]12C | 0.969 | 0.741
COc1cc2c(=O)c(-c3ccc(O)cc3)coc2cc1O | 1.13 | 0.848
O=C(O)C(O)Cc1ccc(O)c(O)c1 (stereo not given) | 1.41 | 0.942
C[C@H](CC[C@@]1(O)O[C@H]2C[C@H]3[C@@H]4CC=C5C[C@@H](O[C@@H]6O[C@H](CO)[C@@H](O[C@@H]7O[C@@H](C)[C@H](O)[C@@H](O)[C@H]7O)[C@H](O)[C@H]6O[C@@H]6O[C@@H](C)[C@H](O)[C@@H](O)[C@H]6O)CC[C@]5(C)[C@H]4CC[C@]3(C)[C@H]2[C@@H]1C)CO[C@@H]1O[C@H](CO)[C@@H](O)[C@H](O)[C@H]1O | 0.86 | 0.93
Nc1nc(=O)c2nc(CNc3ccc(C(=O)N[C@@H](CCC(=O)O)C(=O)O)cc3)cnc2[nH]1 | 0.935 | 0.991
CC(=O)Oc1cc(C)c(OC(C)=O)c2ccccc12 | 1.03 | 0.946
CC1=CC(=O)CC(C)(C)C1=O | 0.941 | 0.943
O=C(/C=C/c1ccc(O)c(O)c1)O[C@@H]1[C@H](O)C[C@@](O)(C(=O)O)C[C@H]1OC(=O)/C=C/c1ccc(O)c(O)c1 | 0.939 | 0.889
O=c1c(-c2ccc(O)cc2)coc2cc(O)ccc12 | 0.979 | 0.825
O=C(O)c1ccccc1C(=O)O | 0.985 | 0.818
C[C@H](O)[C@H](O)c1cnc2nc(N)[nH]c(=O)c2n1 | 1 | 0.866
O=[N+]([O-])c1cn2c(n1)OC[C@@H](OCc1ccc(OC(F)(F)F)cc1)C2 | 1.14 | 0.738
CC/C=C\C/C=C\C/C=C\C/C=C\C/C=C\CCCC(=O)O | 0.801 | 0.975
O=C(/C=C/c1ccc(O)c(O)c1)O[C@@H]1CC(O)(C(=O)O)C[C@@H](OC(=O)/C=C/c2ccc(O)c(O)c2)C1O (stereo not given in full) | 0.924 | 0.884
NC(=O)[C@@H]1CSSCCC(=O)N[C@@H](CCCCN=C(N)N)C(=O)NCC(=O)N[C@@H](CC(=O)O)C(=O)N[C@@H](Cc2c[nH]c3ccccc23)C(=O)N2CCC[C@H]2C(=O)N1 | 0.919 | 1.02
O=C[C@H](O)[C@@H](O)[C@H](O)CO | 1.12 | 0.943
O=C(O)c1cc(O)ccc1O | 0.996 | 0.939
CCCCC[C@H](O)/C=C/[C@H]1[C@H](O)CC(=O)[C@@H]1C/C=C\CCCC(=O)O | 0.759 | 0.827
C=C[C@H]1CN2CC[C@H]1C[C@H]2[C@H](O)c1ccnc2ccc(OC)cc12 | 0.798 | 0.872
O=P(O)(O)OC[C@H]1OC(O)(COP(=O)(O)O)[C@@H](O)[C@@H]1O (stereo not given in full) | 0.949 | 1.05
N[C@@H](CCCCNC(=O)CCCC[C@@H]1SC[C@@H]2NC(=O)N[C@@H]21)C(=O)O | 0.821 | 0.865
CCCCCC/C=C\CCCCCCCC(=O)O | 1.04 | 0.911
